Data: the supplement of paper PMC4683952
Where a name gives a salt, the structure may show the parent alone. About 50 (4%) of roughly 1,200 compounds showed activity. Cut-off read from the data, not from the text of the source: all actives reach 1.3 or more but so do some inactives. The list shows a part of the results.

System: Lgr5 (MarsCy1-Lgr5-EGFP, U2OS)
Test: cell-surface Lgr5 expression (SCi1 fluorescence, background-subtracted) relative to WT DMSO (fold of DMSO control); higher = more Lgr5 at the plasma membrane, active = hit call of the paper
Conditions: U2OS MarsCy1-Lgr5-EGFP stable; treatment time: overnight; 16 µM; library: Johns Hopkins Clinical Compound Library

cell-surface Lgr5 expression, inactive:
OCCN1C[C@H](O)[C@@H](O)[C@H](O)[C@H]1CO [Miglitol] 0.772
CC(C)C(=O)Nc1ccc([N+](=O)[O-])c(C(F)(F)F)c1 [Flutamide] 1.16
CC1COc2c(N3CCN(C)CC3)c(F)cc3c(=O)c(C(=O)O)cn1c23 (stereo not drawn) [Ofloxacin] 0.845
CC(=O)SCC(Cc1ccccc1)C(=O)NCC(=O)OCc1ccccc1 (stereo not drawn) [Racecadotril] 1.24
COC(=O)C1=C(C)NC(C)=C(C(=O)OC(C)C)C1c1cccc2nonc12 (stereo not drawn) [Isradipine] 1.01
O=c1[nH]cnc2c1ncn2[C@H]1CC[C@@H](CO)O1 [Didanosine (2'-3'-dideoxyinosine)] 0.953
CN(C/C=C/C#CC(C)(C)C)Cc1cccc2ccccc12 [Terbinafine] 0.701
Nc1nc(O)c2ncn(CCC(CO)CO)c2n1 [Penciclovir] 0.791
C[C@H]1COc2c(N3CCN(C)CC3)c(F)cc3c(=O)c(C(=O)O)cn1c23 [Levofloxacin HCl] 0.936
NC(CO)C(=O)NNCc1ccc(O)c(O)c1O (stereo not drawn) [Benserazide] 1.01
NCC[C@H](O)C(=O)N[C@@H]1C[C@H](N)[C@@H](O[C@H]2O[C@H](CN)[C@@H](O)[C@H](O)[C@H]2O)[C@H](O)[C@H]1O[C@H]1O[C@H](CO)[C@@H](O)[C@H](N)[C@H]1O [Amikacin] 0.918
O.O.O.O.O.O.[Br-].[Br-].[Sr+2] [Strontium bromide hexahydrate] 0.469
CCOc1ccc(NC(=O)CC(C)O)cc1 (stereo not drawn) [Bucetin] 1.29
CC(=O)OCC1=C(C(=O)O)N2C(=O)[C@@H](NC(=O)Cc3cccs3)[C@H]2SC1 [Cephalothin] 0.925
CC1(C)S[C@@H]2[C@H](NC(=O)Cc3ccccc3)C(=O)N2[C@H]1C(=O)O [Penicillin G (procaine salt)] 0.994
CC1(C)S[C@@H]2[C@H](NC(=O)Cc3ccccc3)C(=O)N2[C@H]1C(=O)O [Penicillin G sodium] 0.968
CC1(C)S[C@@H]2[C@H](NC(=O)Cc3ccccc3)C(=O)N2[C@H]1C(=O)O [Penicillin G benzathine] 1.03
CC1(C)S[C@@H]2[C@H](NC(=O)Cc3ccccc3)C(=O)N2[C@H]1C(=O)O [Penicillin g] 0.966
CC1(C)S[C@@H]2[C@H](NC(=O)Cc3ccccc3)C(=O)N2[C@H]1C(=O)O [Penicillin G potassium (Benzyl penicillin potassium)] 0.951
CCCCc1nc(Cl)c(CO)n1Cc1ccc(-c2ccccc2-c2nnn[nH]2)cc1 [Losartan] 0.915
C=CCCCCCCCCC(=O)O [Undecylenic acid] 0.836
C[C@H](N)C(=O)N[C@@H](C)P(=O)(O)O [Alfafosfalin (L-alanyl-L-1-aminoethylphosphonic acid)] 1.36
O=C1OC(CN2CCOCC2)CN1/N=C/c1ccc([N+](=O)[O-])o1 (stereo not drawn) [Furaltadone] 1.1
C[n+]1ccccc1C=NO [Pralidoxime (2-Pyridinealdoxime methiodide)] 1.11
C[n+]1ccccc1C=NO [Pralidoxime (pyridine 2-aldoximemethochloride)] 1.01
CNCCCN1c2ccccc2CCc2ccccc21 [Desipramine] 1
O=C1OC(c2ccc(O)cc2)(c2ccc(O[C@@H]3O[C@H](C(=O)O)[C@@H](O)[C@H](O)[C@H]3O)cc2)c2ccccc21 (stereo partly drawn) [Phenolphthalein beta-D-glucuronide sodium salt] 1
CCC(C)n1ncn(-c2ccc(N3CCN(c4ccc(OCC5COC(Cn6cncn6)(c6ccc(Cl)cc6Cl)O5)cc4)CC3)cc2)c1=O (stereo not drawn) [Itraconazole] 0.317
O=C(Nc1ccccc1)c1cc(Cl)ccc1O [5-Chlorosalicylanilide] 1.12
O=C(O)CCC(=O)C(=O)O [α-Ketoglutaric acid] 0.995
C[C@H]1[C@H](OC(=O)CCC(=O)O)O[C@@H]2O[C@@]3(C)CC[C@H]4[C@H](C)CC[C@@H]1[C@@]24OO3 [Artesunate] 0.996
CCCn1cnc2c1c(=O)n(CCCCC(C)=O)c(=O)n2C [Propentofylline] 1.12
O=C(O)CN(CCN(CC(=O)O)CC(=O)O)CCN(CC(=O)O)CC(=O)O [Pentetic acid (Diethylenetriaminepentacetic acid)] 1.04
O=C1/C(=C2\Nc3ccc(S(=O)(=O)O)cc3C2=O)Nc2ccc(S(=O)(=O)O)cc21 [Indigotindisulfonate] 1.17
CCN(CC)Cc1cc(Nc2ccnc3cc(Cl)ccc23)ccc1O [Amodiaquin] 1.47
CCOC(=O)C(=O)OCC [Diethyl oxalate] 1.01
O=C([O-])[O-].[Bi+3].[Bi+3].[O-2].[O-2] [Bismuth subcarbonate (Bismuth Carbonate Oxide)] 0.962
CCCCCOC(=O)Nc1nc(=O)n([C@@H]2O[C@H](C)[C@@H](O)[C@H]2O)cc1F [Capecitabine] 1.33
Cc1ncc(COP(=O)(O)O)c(C=O)c1O [Pyridoxal-5-phosphate] 0.951
CCC1NC(=O)c2cc(S(N)(=O)=O)c(Cl)cc2N1 (stereo not drawn) [Quinethazone] 1.21
CC(O)(P(=O)(O)O)P(=O)(O)O [Etidronic acid (1-hydroxyethane-1,1-diphosphonic acid)] 0.814
CC(O)(P(=O)(O)O)P(=O)(O)O [Etidronate disodium] 0.756
Cc1cnc(C(=O)NCCc2ccc(S(=O)(=O)NC(=O)NC3CCCCC3)cc2)cn1 [Glipizide] 1.02

Not a retest: entries from further up.
cell-surface Lgr5 expression, inactive:
C[n+]1ccccc1C=NO [Pralidoxime (pyridine 2-aldoximemethochloride)] 1.01
CNCCCN1c2ccccc2CCc2ccccc21 [Desipramine] 1
O=C1OC(c2ccc(O)cc2)(c2ccc(O[C@@H]3O[C@H](C(=O)O)[C@@H](O)[C@H](O)[C@H]3O)cc2)c2ccccc21 (stereo partly drawn) [Phenolphthalein beta-D-glucuronide sodium salt] 1
